Data on four substances can be found in patent US5716929A (Vertex Pharmaceuticals, Inc., priority 1995, dated 1998).

This series is described as follows: general procedure: solution-phase peptide synthesis; EDC/HOBT. To be noted: late stage modification step.
With “N-(N-Acetyl-tyrosinyl-valinyl-(4(R)-allyloxyprolinyl))-3(S)-amino-4-oxobutanoic acid”, the step yield stood at 53%. The result for “(3S)N-(N-Acetyl-(S)-tyrosinyl-(S)-valinyl-(S)-alaninyl)-3-amino-4-(2-(7-methoxybenzoxazolyl))-4-oxobutanoate” reads 83%. The substance “(3S)t-Butyl N-(N-acetyl-(S)-tyrosinyl-(S)-valinyl-(S)-alaninyl)-3-amino-4-(2-(4-methoxybenzoxazolyl))-4-oxobutanoate” yielded a step yield of 96%.

“(3S)t-Butyl N-(N-acetyl-(S)-(O-tert-butyl-tyrosinyl)-(S)-valinyl-(S)-alaninyl)-3-amino-4-(2-(7-methoxybenzoxazolyl))-4-oxobutanate” returned a step yield of 100%.
